Patent publication US11197836B2, “Topical vasoconstrictor preparations and methods for protecting cells during cancer chemotherapy and radiotherapy” (WISCONSIN ALUMNI RESEARCH FOUNDATION, priority 2005, dated 2021)
Some of these results come from one statement about several compounds together.

Test system: radiodermatitis of rat skin
Assay: Radiodermatitis prevention after 8.8 Gy γ irradiation of rat skin, Example 13
Type: in vivo
Conditions: single topical application of 200 mM norepinephrine or 100 mM epinephrine in ethanol:PG:water

Structure (SMILES): NC[C@H](O)c1ccc(O)c(O)c1 [norepinephrine]
- radioprotection window, end (starts at earliest time-point tested, 3 min): at least 45 min
